For nine molecules, binding results are on record in patent US20050037969A1.

Amino acid sequences for entries named in this document (tags omitted). A change or cut given only in a name is not applied to a line headed by its entry.
UniProt Q14005: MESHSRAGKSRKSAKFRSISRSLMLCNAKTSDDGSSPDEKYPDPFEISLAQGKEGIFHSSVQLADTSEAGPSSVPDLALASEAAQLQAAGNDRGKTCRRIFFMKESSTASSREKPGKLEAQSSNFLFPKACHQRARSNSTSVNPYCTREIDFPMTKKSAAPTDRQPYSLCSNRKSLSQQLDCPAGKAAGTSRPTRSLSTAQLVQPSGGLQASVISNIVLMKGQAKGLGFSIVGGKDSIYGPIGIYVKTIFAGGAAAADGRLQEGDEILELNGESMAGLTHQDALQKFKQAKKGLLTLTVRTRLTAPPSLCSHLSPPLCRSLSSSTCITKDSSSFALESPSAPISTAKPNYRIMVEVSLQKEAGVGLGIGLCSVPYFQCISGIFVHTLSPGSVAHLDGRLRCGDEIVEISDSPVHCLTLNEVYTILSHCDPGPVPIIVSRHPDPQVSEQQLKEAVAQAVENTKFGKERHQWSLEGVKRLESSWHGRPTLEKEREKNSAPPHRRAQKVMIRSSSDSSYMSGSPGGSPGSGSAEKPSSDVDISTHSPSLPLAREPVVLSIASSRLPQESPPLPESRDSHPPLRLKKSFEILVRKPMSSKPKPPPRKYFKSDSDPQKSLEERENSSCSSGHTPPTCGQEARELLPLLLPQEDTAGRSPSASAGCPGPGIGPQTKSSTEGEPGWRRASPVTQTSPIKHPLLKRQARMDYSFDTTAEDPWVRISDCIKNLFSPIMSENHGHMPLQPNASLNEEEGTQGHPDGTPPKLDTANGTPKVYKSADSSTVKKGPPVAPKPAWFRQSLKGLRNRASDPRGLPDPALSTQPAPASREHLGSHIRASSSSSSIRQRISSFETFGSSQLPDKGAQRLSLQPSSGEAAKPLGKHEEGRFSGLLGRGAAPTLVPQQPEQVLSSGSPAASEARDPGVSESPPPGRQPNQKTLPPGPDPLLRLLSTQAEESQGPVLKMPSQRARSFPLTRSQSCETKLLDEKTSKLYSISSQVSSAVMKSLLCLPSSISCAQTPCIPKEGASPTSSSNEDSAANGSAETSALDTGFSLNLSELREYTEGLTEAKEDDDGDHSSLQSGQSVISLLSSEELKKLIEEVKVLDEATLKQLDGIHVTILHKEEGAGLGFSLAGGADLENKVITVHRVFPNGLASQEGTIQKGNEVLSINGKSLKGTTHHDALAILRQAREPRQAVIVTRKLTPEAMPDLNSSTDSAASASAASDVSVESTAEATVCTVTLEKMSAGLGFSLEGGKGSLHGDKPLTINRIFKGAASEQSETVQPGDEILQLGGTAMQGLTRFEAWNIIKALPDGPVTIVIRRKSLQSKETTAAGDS
UniProt Q6P0Q8: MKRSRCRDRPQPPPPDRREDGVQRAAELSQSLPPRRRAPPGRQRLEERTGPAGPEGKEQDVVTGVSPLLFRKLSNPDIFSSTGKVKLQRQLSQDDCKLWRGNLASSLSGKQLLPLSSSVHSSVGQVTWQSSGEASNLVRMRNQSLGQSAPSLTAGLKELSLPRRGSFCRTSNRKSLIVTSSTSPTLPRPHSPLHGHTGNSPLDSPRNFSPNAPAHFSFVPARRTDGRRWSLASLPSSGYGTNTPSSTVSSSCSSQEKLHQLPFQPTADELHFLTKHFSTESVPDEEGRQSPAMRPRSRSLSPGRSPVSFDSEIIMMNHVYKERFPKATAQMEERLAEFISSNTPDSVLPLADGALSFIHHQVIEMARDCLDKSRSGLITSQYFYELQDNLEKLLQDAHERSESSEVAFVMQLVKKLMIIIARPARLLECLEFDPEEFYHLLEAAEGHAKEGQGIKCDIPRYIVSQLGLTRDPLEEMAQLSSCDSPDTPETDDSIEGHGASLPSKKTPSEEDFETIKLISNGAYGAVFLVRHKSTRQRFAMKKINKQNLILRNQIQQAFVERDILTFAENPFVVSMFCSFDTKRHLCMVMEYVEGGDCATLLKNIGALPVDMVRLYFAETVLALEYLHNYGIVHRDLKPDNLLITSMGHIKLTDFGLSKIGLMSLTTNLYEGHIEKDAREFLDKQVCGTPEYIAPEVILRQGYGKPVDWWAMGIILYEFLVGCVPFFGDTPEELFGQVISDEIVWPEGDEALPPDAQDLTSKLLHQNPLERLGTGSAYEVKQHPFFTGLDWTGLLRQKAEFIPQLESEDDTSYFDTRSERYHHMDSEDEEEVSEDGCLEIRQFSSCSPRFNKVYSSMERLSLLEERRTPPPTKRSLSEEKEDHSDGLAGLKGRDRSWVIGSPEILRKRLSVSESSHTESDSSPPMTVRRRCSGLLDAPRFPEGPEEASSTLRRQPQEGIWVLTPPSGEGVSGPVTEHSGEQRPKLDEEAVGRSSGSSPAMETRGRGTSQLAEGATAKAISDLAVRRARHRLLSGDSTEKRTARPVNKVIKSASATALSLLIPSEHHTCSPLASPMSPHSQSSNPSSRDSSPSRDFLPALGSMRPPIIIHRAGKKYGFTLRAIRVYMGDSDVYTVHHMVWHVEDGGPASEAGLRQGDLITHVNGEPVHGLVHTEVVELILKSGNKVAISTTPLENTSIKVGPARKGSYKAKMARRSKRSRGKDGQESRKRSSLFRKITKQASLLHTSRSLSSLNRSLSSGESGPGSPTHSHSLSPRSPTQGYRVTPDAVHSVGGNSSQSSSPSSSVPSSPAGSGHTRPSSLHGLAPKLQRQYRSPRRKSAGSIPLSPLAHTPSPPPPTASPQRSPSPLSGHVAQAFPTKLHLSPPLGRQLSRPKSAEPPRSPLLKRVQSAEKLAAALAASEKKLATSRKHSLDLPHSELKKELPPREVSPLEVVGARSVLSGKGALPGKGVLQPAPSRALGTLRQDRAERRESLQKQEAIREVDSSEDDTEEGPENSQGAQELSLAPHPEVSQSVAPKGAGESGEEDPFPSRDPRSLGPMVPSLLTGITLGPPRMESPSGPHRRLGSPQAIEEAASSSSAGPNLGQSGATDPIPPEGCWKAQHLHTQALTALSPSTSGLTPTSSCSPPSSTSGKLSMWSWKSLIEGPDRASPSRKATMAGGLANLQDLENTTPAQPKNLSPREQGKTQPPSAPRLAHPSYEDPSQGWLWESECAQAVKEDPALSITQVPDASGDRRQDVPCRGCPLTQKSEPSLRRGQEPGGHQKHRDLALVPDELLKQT

These are yes or no findings as the source states them, for the method shown. For some of these results: In cells and extracts the contact can be indirect. Some entries that bind do so weakly or less than the wild type. For some of these results: Sequences can lack the tags named with a protein.

The target of test [1] is T1, GST-MPP1 PDZ domain fusion protein (Homo sapiens (Human)) (UniProt Q00013).
T1 sequence: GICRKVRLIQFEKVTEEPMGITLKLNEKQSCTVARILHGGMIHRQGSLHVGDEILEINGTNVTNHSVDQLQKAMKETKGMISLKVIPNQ
The test can be described thus: A/G plate assays, Table 2 matrix.

The target in test [2] is T1, GST-MPP1 PDZ domain fusion protein (Homo sapiens (Human)). The test can be described thus: A/G assays, told in text.
Test [3] concerns the target T2, TIP1-RFP fusion protein (Homo sapiens) (UniProt O14907).
T2 sequence: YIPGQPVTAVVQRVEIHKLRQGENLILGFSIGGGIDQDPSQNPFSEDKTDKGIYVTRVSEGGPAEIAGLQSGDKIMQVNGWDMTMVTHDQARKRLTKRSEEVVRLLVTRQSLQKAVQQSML
The test can be described thus: pull-down with biotinylated peptide from cell lysate.

In test [4] the target is GST-prIL16 fusion protein (PDZ domains 1-2) (Homo sapiens (Human)) (UniProt Q14005). The test can be described thus: A/G plate assays, Table 2 matrix.
Test [5] has the same target. The test can be described thus: A/G assays, told in text.
The target of test [6] is T3, GST-AF6 PDZ domain fusion protein (Homo sapiens (Human)) (UniProt P55196).
T3 sequence: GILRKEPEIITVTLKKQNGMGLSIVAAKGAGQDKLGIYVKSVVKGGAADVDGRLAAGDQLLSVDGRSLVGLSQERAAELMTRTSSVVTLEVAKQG
The test can be described thus: A/G plate assays, Table 2 matrix.

Test [7] has as its target GST-PSD95 fusion protein (PDZ domains 1-3) (human). The test can be described thus: A/G plate assays, Table 2 matrix.
In test [8] the target is T4, GST-41.8 kD protein (KIAA0751) PDZ domain fusion protein (Mus musculus (Mouse)) (UniProt Q9EQZ7).
T4 sequence: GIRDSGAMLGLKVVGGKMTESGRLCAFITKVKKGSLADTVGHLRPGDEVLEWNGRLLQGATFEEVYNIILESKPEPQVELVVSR
The test can be described thus: A/G plate assays, Table 2 matrix.

Test [9] has as its target T3, GST-AF6 PDZ domain fusion protein (Homo sapiens (Human)). The test can be described thus: A/G assays, told in text.
Test [10] has as its target GST-PSD95 fusion protein (PDZ domains 1-3) (human). The test can be described thus: A/G assays, told in text.
In test [11] the target is T4, GST-41.8 kD protein (KIAA0751) PDZ domain fusion protein (Mus musculus (Mouse)). The test can be described thus: A/G assays, told in text.
Test [12] has as its target T5, GST-PDZK1 fusion protein (PDZ domains 2-4) (Homo sapiens) (UniProt Q5T2W1).
T5 sequence: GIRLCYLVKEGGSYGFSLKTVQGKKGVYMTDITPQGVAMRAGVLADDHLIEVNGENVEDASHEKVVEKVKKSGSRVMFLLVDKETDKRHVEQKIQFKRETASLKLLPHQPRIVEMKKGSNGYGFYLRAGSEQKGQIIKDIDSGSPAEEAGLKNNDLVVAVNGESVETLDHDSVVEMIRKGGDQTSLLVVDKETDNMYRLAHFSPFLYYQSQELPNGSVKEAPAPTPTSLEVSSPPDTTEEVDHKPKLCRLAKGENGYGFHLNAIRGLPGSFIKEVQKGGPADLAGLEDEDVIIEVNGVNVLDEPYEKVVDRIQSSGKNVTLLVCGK
The test can be described thus: A/G plate assays, Table 2 matrix.

The target in test [13] is T5, GST-PDZK1 fusion protein (PDZ domains 2-4) (Homo sapiens). The test can be described thus: A/G assays, told in text.
Test [14] concerns the target GST-PSD95 fusion protein (PDZ domains 1-3) (human). The test can be described thus: G assay: biotinylated peptide on plate-bound GST-PDZ fusion, streptavidin-HRP, OD 450 nm.
Test [15] addresses KIAA0807 (PDZ domain)-GST fusion protein (human) (UniProt Q6P0Q8). The test can be described thus: A/G plate assays, Table 2 matrix.
The target is the same in test [16]. The test can be described thus: A/G assays, told in text.

B1: DNAM-1 C-terminal peptide AA22L, biotinylated (peptide)
peptide: TREDIYVNYPTFSRRPKTRV
modifications: biotin at the amino-terminus
In the case of B1, the binding result in test [1] and in test [2] was “binds” in each case.

B2: CD95 (Fas) C-terminal peptide AA13L, biotinylated (peptide)
peptide: KDITSDSENSNFRNEIQSLV
modifications: biotin at the amino-terminus
On to B2, for which the binding result in [3] is given as “binds”.

B3: CD44 C-terminal peptide AA9L, biotinylated (peptide)
peptide: QFMTADETRNLQNVDMKIGV
modifications: biotin at the amino-terminus
On to B3, for which the binding result in test [4], in [1], in test [5] and in [2] was “binds” throughout.

B4: Clasp-4 C-terminal peptide AA3L, biotinylated (peptide)
peptide: CAISGTSSDRGYGSPRYAEV
modifications: biotin at the amino-terminus
In the case of B4, the binding entry in [6], in [7], in test [8], in [9], in test [10] and in test [11] was “binds” throughout.

B5: BLR-1 C-terminal peptide AA45L, biotinylated (peptide)
peptide: PSWRRSSLSESENATSLTTF
modifications: biotin at the amino-terminus
Regarding B5, the binding result in test [12] and in test [13] was “binds” throughout.

B6: Clasp-1 C-terminal peptide AA1L, biotinylated (peptide)
peptide: ISKATPALPTVSISSSAEV
modifications: biotin at the amino-terminus
As to B6, the binding entry in test [7], in test [10] and in test [14] was “binds” throughout.

B7: Spectrin (beta) C-terminal peptide AA32L, biotinylated (peptide)
peptide: SFPPCGHRENVPGQSLVSFV
modifications: biotin at the amino-terminus
As for B7, the binding entry in [1] is on record as “binds”.

B8: CD34 C-terminal peptide AA7L, biotinylated (peptide)
peptide: QATSENGHSARQHVVADTEL
modifications: biotin at the amino-terminus
With B8, the binding result in test [15], in test [7], in [16] and in [10] was “binds” throughout.

B9: VCAM1 C-terminal peptide AA17L, biotinylated (peptide)
peptide: ARKANMKGSYSLVEAQKSKV
modifications: biotin at the amino-terminus
Take B9: the binding entry in test [1] and in [2] was “binds” each time.
